# PMC12621043, “Un-LOK-ing a New Approach for Conformational Selective Targeting of STK10 (LOK)” (ACS Medicinal Chemistry Letters, 2025)
# System: internal kinase selectivity panel (∼90 kinases)
# Assay: DSF-based selectivity screening, whole panel
# Type: binding
# Settings: number of kinases showing a thermal shift >5 °C divided by the total number of kinases screened
row,SMILES,S (5 °C) selectivity score
1,O=C(NCc1ccccc1)Nc1ccc2cc1OCCOCCNc1ccn3ncc-2c3n1 [compound 16],0.11
2,O=C(NCc1ccccc1Cl)Nc1ccc2cc1OCCOCCNc1ccn3ncc-2c3n1 [compound 17],0.09
3,O=C(NCc1cccc(Cl)c1)Nc1ccc2cc1OCCOCCNc1ccn3ncc-2c3n1 [compound 18],0.07
4,O=C(NCc1ccc(Cl)cc1)Nc1ccc2cc1OCCOCCNc1ccn3ncc-2c3n1 [compound 19],0.10
5,O=C(NCc1ccc(Cl)cc1Cl)Nc1ccc2cc1OCCOCCNc1ccn3ncc-2c3n1 [compound 20],0.07
6,O=C(NCc1ccc(Cl)cc1F)Nc1ccc2cc1OCCOCCNc1ccn3ncc-2c3n1 [compound 21],0.10
7,Cc1cc(Cl)ccc1CNC(=O)Nc1ccc2cc1OCCOCCNc1ccn3ncc-2c3n1 [compound 23],0.08
8,Cc1cc(Br)ccc1CNC(=O)Nc1ccc2cc1OCCOCCNc1ccn3ncc-2c3n1 [compound 24],0.06
9,Cc1ccc(F)cc1CNC(=O)Nc1ccc2cc1OCCOCCNc1ccn3ncc-2c3n1 [compound 26],0.08
10,O=C(NCc1ccccc1C(F)(F)F)Nc1ccc2cc1OCCOCCNc1ccn3ncc-2c3n1 [compound 27],0.08
11,O=C(NCc1ccc(C(F)(F)F)cc1)Nc1ccc2cc1OCCOCCNc1ccn3ncc-2c3n1 [compound 28],0.08
12,COc1ccccc1CNC(=O)Nc1ccc2cc1OCCOCCNc1ccn3ncc-2c3n1 [compound 29],0.06
13,COc1cccc(CNC(=O)Nc2ccc3cc2OCCOCCNc2ccn4ncc-3c4n2)c1 [compound 30],0.07
14,COc1ccc(CNC(=O)Nc2ccc3cc2OCCOCCNc2ccn4ncc-3c4n2)cc1F [compound 32],0.09
15,COc1cc(CNC(=O)Nc2ccc3cc2OCCOCCNc2ccn4ncc-3c4n2)ccc1F [compound 33],0.10
16,C[C@H](NC(=O)Nc1ccc2cc1OCCOCCNc1ccn3ncc-2c3n1)c1ccccc1 [compound 34],0.10
17,CN1CCN(C(=O)Nc2ccc3cc2OCCOCCNc2ccn4ncc-3c4n2)CC1 [compound 35],0.02
